The results in this text go back to PMC515366, “A Drosophila Pattern Recognition Receptor Contains a Peptidoglycan Docking Groove and Unusual L,D-Carboxypeptidase Activity” (PLoS Biology, 2004).

This experiment concerns the target recombinant Drosophila peptidoglycan recognition protein SA (rPGRP-SA) (Drosophila) (UniProt Q9VYX7). As to the kind of experiment: SEC; gel-filtration chromatography; Superdex 75 pre-equilibrated in 20 mM Tris-HCl (pH 7.8) and 300 mM NaCl; both purified.

These are yes or no findings as the source states them, for the method shown.

B1: recombinant Drosophila peptidoglycan recognition protein SA (rPGRP-SA) (protein, UniProt Q9VYX7 27-203)
chain: GKSRQRSPANCPTIKLKRQWGGKPSLGLHYQVRPIRYVVIHHTVTGECSGLLKCAEILQNMQAYHQNELDFNDISYNFLIGNDGIVYEGTGWGLRGAHTYGYNAIGTGIAFIGNFVDKLPSDAALQAAKDLLACGVQQGELSEDYALIAGSQVISTQSPGLTLYNEIQEWPHWLSNP
Consider B1, for which the binding result was “no binding”.
